Measured values reported in PubChem BioAssay AID590 (National Center for Advancing Translational Sciences (NCATS), 2007).
About 6,500 (11%) of roughly 59,000 compounds were called active. This list was built around the results that the source calls inconclusive (neither active nor inactive); the mix of calls is not that of the screen. No stated cut-off is given here; in the data, active means max dye-equivalent concentration above about 10 nM; inconclusive means mostly about 1.1 nM to 9.6 nM; inactive means weaker than that.

Assay: qHTS Assay for Spectroscopic Profiling in A350 Spectral Region
Conditions: Compound autofluorescence, 340/450 nm, Alexa 350 dye-equivalents; active compounds read high

Row | Structure (SMILES) | max dye-equivalent concentration
1 | Cc1cc(C)c(C#N)c(N2CCN(Cc3ccc4c(c3)OCO4)CC2)n1 | inconclusive: 3.3 nM
2 | Cc1nc(NC2=NCN(Cc3cccnc3)CN2)nc2c(C)cccc12 | inactive
3 | CC(C1CC1)N(C(=O)NC1CCS(=O)(=O)C1)c1ccccc1 (stereo unspecified) | inconclusive: 2 nM
4 | CCOC(=O)C1=C(C)NC(=O)NC1c1ccc(OC)c(Cl)c1 (stereo unspecified) | inconclusive: 3.8 nM
5 | Fc1ccccc1CSc1nnc(-c2cnccn2)n1Cc1ccco1 | inconclusive: 1.3 nM
6 | O=C(CN(Cc1ccco1)C(=O)CNS(=O)(=O)c1ccc(F)cc1)NCCc1ccccc1 | inactive
7 | Cn1c(N)c(C(=O)COC(=O)Cn2cc(C(F)(F)F)ccc2=O)c(=O)n(C)c1=O | inactive
8 | Cc1ccccc1Cn1cnc2c(cnn2C(C)(C)C)c1=O | inactive
9 | CC(=O)Nc1ccc(S(=O)(=O)Nc2ccc(NC(=O)c3ccco3)cc2)cc1 | inactive
10 | COc1ccccc1-c1nnc2n1N=C(C(C)(C)C)CS2 | inconclusive: 1.1 nM
11 | CCC(C)[C@H](NC(=O)NC1CC1)C(=O)O (stereo partly specified) | inconclusive: 2.1 nM
12 | Cc1cc(C)n(Cc2ccc(C(=O)O)o2)n1 | inconclusive: 1.2 nM
13 | CCc1nnc(NC(=O)CSc2nccn2-c2ccccc2)s1 | inactive
14 | Cc1ccc(-n2ncc(C#N)c2/N=C/N2CCN(C)CC2)cc1 | inactive
15 | Cc1cc(C(=O)Nc2nc3ccc(S(C)(=O)=O)cc3s2)c(C)o1 | inconclusive: 6 nM
16 | Cc1ccc(C)c(CN2CCNC2=O)c1 | inconclusive: 2 nM
17 | CCOC(=O)CSC1=C(C#N)C(c2ccccc2)C(C(C)=O)=C(C)N1 (stereo unspecified) | inconclusive: 3.8 nM
18 | CCN(CC)CCCN(Cc1cc2cc3c(cc2[nH]c1=O)OCCO3)C(=O)Nc1ccccc1 | active: 200 nM
19 | O=C(CC1(O)C(=O)Nc2ccccc21)c1cccnc1 (stereo unspecified) | inactive
20 | COc1ccc(NC(=O)CSC2=C(C#N)C(c3ccco3)C3=C(CCCC3=O)N2)c(OC)c1 (stereo unspecified) | inconclusive: 3.4 nM
21 | COC(=O)C1=C(C(C)=O)C(c2ccc(C(=O)OC)cc2)n2nnnc2N1 (stereo unspecified) | inconclusive: 1.8 nM

Single entries from the list:
In max dye-equivalent concentration, Fc1ccccc1CSc1nnc(-c2cnccn2)n1Cc1ccco1 is listed with inconclusive: 1.3 nM
In max dye-equivalent concentration, O=C(CN(Cc1ccco1)C(=O)CNS(=O)(=O)c1ccc(F)cc1)NCCc1ccccc1 is listed with inactive
In max dye-equivalent concentration, CCOC(=O)C1=C(C)NC(=O)NC1c1ccc(OC)c(Cl)c1 (stereo unspecified) is listed with inconclusive: 3.8 nM

Next entries

Row | Structure (SMILES) | max dye-equivalent concentration
22 | O=C(Nc1ccon1)c1csc2ccccc12 | inconclusive: 1.1 nM
23 | C=CCNC(=O)CNS(=O)(=O)c1ccc(F)cc1 | inactive
24 | Cc1ccc(C2CC(=O)c3cnc(N4CC(C)CC(C)C4)nc3C2)cc1 (stereo unspecified) | inconclusive: 2.2 nM
25 | Cc1nnc(SCC(=O)NCc2ccc(Cl)cc2)[nH]c1=O | inactive
26 | CN(Cc1ccco1)c1ncnc2ccc(-c3ccc4c(c3)OCO4)cc12 | active: 33 nM
27 | CCC(C)NS(=O)(=O)c1ccc(NS(C)(=O)=O)cc1 (stereo unspecified) | inconclusive: 1.6 nM
28 | O=C(CN1CCC(O)(c2ccc(F)cc2)CC1)NCc1ccc(F)cc1 | inconclusive: 2 nM
29 | CCCNC(=O)c1cc(-c2ccc(OC)cc2)on1 | inconclusive: 4.6 nM
30 | CCn1c(SCC(=O)Nc2ccc(S(=O)(=O)Nc3ccccn3)cc2)nnc1-c1ccncc1 | inconclusive: 2.9 nM
31 | CN1CC[C@@]23c4ccccc4N[C@H]1[C@]21CCN(C)[C@@H]3Nc2ccccc21 | inconclusive: 2.9 nM
32 | O=C(O)C1CCCCC1C(=O)NCCc1ccncc1 (stereo unspecified) | inconclusive: 4.8 nM
33 | COc1ccc2nc(-n3c(C)ccc3C)sc2c1 | inconclusive: 1.3 nM
34 | COC(=O)c1ccc(Oc2cc(C)nc(-n3nc(C)cc3C)n2)cc1 | inconclusive: 1.3 nM
35 | NCCNc1ncnc2ccc(Cl)cc12 | inactive
36 | O=C(c1cccc(F)c1)N1CCC2(CC1)CN(c1cccc(-c3ccccc3)c1)C2 | inactive
37 | CCOC(=O)C1=C(N)OC2=C(C(=O)CC(C)(C)C2)C1c1ccccc1OCC#N (stereo unspecified) | inconclusive: 2 nM
38 | COc1ccc2oc(=N)c(C(=O)Nc3ccccc3)cc2c1 | active: 10 nM
39 | Cc1oc2cc3c(C(=O)N4CCN(C)CC4)c(C)oc3cc2c1C(=O)N1CCN(C)CC1 | inactive
40 | COC(=O)c1cc(NC(=O)C2CC2)cc(C(=O)OC)c1 | active: 13 nM
41 | CCOC(=O)CSC1=Nc2ccccc2C2=NC(CC(=O)NCc3ccc(OC)cc3)C(=O)N12 (stereo unspecified) | active: 17 nM
42 | COc1ccc(NCc2cc3ccccc3[nH]c2=O)cc1 | active: 11 nM

Row | Structure (SMILES) | max dye-equivalent concentration
43 | Cn1c(=O)c2c(nc(N3CCOCC3)n2CCCNC2=NCCC2)n(C)c1=O | inconclusive: 1.9 nM
44 | Cc1ccccc1-n1nc(C)c2cc(C(=O)N3CCOCC3)sc21 | inactive
45 | CCCn1c(SCC(=O)Nc2c(C)cccc2CC)nnc1C(C)C | inconclusive: 9.6 nM
46 | Cc1ccc2nc(-c3cccnc3)oc2c1 | inconclusive: 3.5 nM
47 | CC1CCCN(S(=O)(=O)c2cc(Cl)ccc2Cl)C1 (stereo unspecified) | inactive
48 | CC(C)OC(=O)c1cccc(C(=O)OCc2ccco2)n1 | inconclusive: 2.8 nM
49 | CCOC(=O)c1cc(NC(=O)c2cccnc2)cc(C(=O)OCC)c1 | inactive
50 | CS(=O)(=O)c1nc(-c2cccs2)cc(C(F)(F)F)n1 | active: 110 nM
51 | O=C(COC(=O)c1ccccn1)Nc1ncc(C(F)(F)F)cc1Cl | inconclusive: 5.8 nM
52 | CN(C)S(=O)(=O)c1ccc2c(c1)C(CC(=O)O)NC2=O (stereo unspecified) | inactive
53 | Cc1ccc(C)c(-c2nc3cc(N)ccc3o2)c1 | inconclusive: 5.5 nM
54 | NC(=O)c1c(NC(=O)CSc2nnc(Cc3ccccc3)n2Cc2ccco2)sc2c1CCC2 | inactive
55 | Cc1ccc(CCNC(=O)C2CCN(S(=O)(=O)c3cccc4nsnc34)CC2)cc1 | inconclusive: 2.5 nM
56 | CCOc1cc(CNCC2CCCO2)cc(Br)c1OCC(N)=O (stereo unspecified) | inactive
57 | Cn1c(CCN2CCCCC2)nc2cc(NS(=O)(=O)c3ccc(Cl)cc3)ccc21 | inactive
58 | NC(=O)OCC(COC(N)=O)c1ccccc1 | inconclusive: 6.5 nM
59 | Cc1nc2cnc(Nc3ccccc3)nc2n(Cc2cccs2)c1=O | inconclusive: 1.5 nM
60 | CC1(C)CCCC2=C1CC1C(=O)N(c3ccccc3)C(=O)C1C2 (stereo unspecified) | inactive
61 | CN1CCc2c(sc3c2c(=O)n(-c2ccccc2)c2nnc(SCc4ccccc4F)n32)C1 | inconclusive: 2.9 nM
